No constants are given. Whether binding was seen depends on the method and setting. Binding seen in cells or lysates may run through a third protein. Here binding means that the protein was enriched with, or labelled near, the bait; the list need not be complete.
B1: ZFP516 (protein, UniProt Q7TSH3 1-1157)
chain: MDRSREAEMELRRGPSPPRAGRSHEVDGDKAACHSCCICGKSFPFQSSLSQHMRKHTGEKPYKCPYCDHRASQKGNLKIHIRSHRTGTLIQGHEPEAGEAQLGEMRVSEGLDGCASPTKSTSACNRVLNGAVPMDGSKILLRSSRKEVEGAASAQEDTEATVPCSFCKSRFERKKDLELHVHQAHKPFKCRLCSYVTLREESLLSHIERDHITAQVPNGSEACVENGKPELSPGEFPCEVCGQAFSQTWFLKAHMKKHRGSFDHGCHICGRRFKEPWFLKNHMKAHGPKAGSKNRPKSELDPIATINNVVQEEVIVAGLSLYEVCTKCGNLFTNLDSLNAHNAIHRKVEASRIRAPAEEGDSEDPLDTKQFFLQCLNLTPYVAGDVSPGGQAGRRVAELDPVNSYQAWQLATRGKVAEPAEYLKYGTWDEALAGDVAFDKDKREYILVSQEKRKREQDAPATQAPPRKRASVPGDPMLSGHLDPRPTSRPNRRASATTGQGKSSECFECGKIFRTYHQMVLHSRVHRRARRDRDPEGDRAARARCGSLSEGDSASQPSSPGSACAIADSPGLAEEVVDDSGEEAVPEPASGGQPRHCCSSGEVTPTALSNGDQNHKLGNNLPEKDISEPKVGSAMPSVSILENSSRETTKGPEQHRYSLDLKMPAFHPKQEVPSTTDRVDFPASMEITSLQHTLDSQAGHSKEKLSDLHKEHCGVGKRASAPDLVPLDLSMRSSRDEPSGKEACSLQAALVIHPCPYCTHKTYYPEVLWMHKRIWHRVSCSSVAPPWTQPSGHKSIRSNLVFLTRSGRTGPPPALGGKECQPLLLSRFARTQVPGGAPGSKGSSSPLGVTTKAASMPKNKESHSGGPCALWASGPDGYRQTRAGHGQEPPSAAVQGPLAKPKQEGSSRLAPSPGSGSLSRSTTPTPSVITRVGAQPSANSKPVEKLGGPAVGTGFTPPNKHSAPDSLKAKFSPQPQGQPPLKGEGGSPLPPREPSVKAAQELRTLATCAAGSRGEAALQAPPGAPPTLNSAKQEPAAEGQEKRLDILSIFKTYIPKDFATLYQGWGVSSPGPEHRGTSLTGTPRTQAHQGDFVCVECGKSFHQPSQLRAHLRAHTVVFECDGPRDSEVHTASTDAPKQGRDHTTPGTVPAGPLRKGI

Protein sequences, listed by entry. Tags and fused reporters are not part of them.
UniProt A2A935: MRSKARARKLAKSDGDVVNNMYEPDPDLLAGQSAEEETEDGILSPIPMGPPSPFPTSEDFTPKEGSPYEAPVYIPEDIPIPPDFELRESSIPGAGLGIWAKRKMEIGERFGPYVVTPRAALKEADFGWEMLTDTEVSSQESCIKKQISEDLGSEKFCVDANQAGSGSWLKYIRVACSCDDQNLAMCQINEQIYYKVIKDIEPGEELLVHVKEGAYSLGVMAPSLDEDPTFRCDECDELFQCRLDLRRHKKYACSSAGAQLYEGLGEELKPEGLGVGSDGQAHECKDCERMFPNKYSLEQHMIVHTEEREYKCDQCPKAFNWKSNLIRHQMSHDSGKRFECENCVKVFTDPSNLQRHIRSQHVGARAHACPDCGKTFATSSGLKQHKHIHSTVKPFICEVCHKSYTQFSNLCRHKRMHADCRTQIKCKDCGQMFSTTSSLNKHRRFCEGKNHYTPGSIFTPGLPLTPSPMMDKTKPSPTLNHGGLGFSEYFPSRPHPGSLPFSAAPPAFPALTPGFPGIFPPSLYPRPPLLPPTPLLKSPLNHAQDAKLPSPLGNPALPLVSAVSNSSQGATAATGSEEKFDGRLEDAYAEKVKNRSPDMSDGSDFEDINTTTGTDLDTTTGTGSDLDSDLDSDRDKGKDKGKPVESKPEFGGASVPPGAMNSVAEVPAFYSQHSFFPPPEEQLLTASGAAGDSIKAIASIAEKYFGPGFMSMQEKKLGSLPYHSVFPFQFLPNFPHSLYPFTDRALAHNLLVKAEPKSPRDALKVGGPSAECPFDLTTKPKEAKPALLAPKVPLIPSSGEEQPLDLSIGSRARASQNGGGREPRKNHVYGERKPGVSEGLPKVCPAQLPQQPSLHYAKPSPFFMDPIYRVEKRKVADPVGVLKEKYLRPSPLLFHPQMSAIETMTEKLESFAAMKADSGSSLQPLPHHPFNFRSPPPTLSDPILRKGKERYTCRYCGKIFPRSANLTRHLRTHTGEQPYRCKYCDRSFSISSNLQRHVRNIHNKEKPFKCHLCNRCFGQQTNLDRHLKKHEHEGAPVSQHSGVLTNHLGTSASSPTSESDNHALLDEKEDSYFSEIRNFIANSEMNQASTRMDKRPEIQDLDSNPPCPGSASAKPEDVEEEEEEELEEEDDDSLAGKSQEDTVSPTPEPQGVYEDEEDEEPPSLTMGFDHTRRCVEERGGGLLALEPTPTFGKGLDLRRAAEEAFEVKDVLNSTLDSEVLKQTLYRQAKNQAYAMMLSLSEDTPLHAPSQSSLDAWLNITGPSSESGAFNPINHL
UniProt Q9EPK5: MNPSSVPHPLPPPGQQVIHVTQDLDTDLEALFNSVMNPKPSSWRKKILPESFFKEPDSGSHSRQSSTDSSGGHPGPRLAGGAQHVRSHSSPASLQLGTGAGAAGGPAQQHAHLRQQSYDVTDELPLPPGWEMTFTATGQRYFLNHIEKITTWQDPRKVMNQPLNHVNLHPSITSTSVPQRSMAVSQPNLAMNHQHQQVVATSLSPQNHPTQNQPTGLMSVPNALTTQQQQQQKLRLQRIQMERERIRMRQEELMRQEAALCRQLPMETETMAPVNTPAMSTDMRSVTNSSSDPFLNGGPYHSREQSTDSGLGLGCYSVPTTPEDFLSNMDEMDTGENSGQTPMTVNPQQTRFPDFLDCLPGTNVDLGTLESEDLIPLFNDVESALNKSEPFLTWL
UniProt P56546: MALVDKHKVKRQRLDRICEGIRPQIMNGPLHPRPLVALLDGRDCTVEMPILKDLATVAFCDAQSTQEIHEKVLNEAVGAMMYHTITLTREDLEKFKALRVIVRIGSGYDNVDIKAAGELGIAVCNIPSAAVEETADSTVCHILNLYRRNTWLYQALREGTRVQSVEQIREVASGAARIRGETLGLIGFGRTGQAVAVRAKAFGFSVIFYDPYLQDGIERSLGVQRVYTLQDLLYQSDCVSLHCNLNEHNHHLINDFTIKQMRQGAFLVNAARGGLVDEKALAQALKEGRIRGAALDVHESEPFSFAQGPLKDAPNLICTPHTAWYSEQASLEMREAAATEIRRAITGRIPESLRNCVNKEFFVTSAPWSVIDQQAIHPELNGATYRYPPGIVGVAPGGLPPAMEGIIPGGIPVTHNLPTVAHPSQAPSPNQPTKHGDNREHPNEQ
UniProt P46938: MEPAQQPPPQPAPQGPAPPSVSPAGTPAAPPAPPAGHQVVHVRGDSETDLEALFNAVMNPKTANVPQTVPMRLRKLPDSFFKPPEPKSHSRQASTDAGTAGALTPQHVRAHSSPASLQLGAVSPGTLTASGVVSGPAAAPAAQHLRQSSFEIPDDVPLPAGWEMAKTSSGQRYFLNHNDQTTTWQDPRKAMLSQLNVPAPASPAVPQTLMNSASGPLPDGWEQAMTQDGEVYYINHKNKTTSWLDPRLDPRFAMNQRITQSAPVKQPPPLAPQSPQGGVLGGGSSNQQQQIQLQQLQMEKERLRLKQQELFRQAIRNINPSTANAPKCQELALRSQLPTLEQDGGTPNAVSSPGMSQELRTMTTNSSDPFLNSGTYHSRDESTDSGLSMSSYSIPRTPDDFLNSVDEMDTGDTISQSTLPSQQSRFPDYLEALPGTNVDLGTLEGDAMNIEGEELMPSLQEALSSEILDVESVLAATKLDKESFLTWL

target: PRDM16-FLAG (UniProt A2A935); experiment: affinity purification with mass spectrometry; PRDM16-FLAG expressed by lentivirus in beige adipocytes differentiated from scWAT preadipocytes (day 7); lysate precipitated with anti-FLAG agarose beads, SDS-PAGE, gel bands digested with trypsin, LC-MS/MS

| Molecule | binding |
| --- | --- |
| TAZ (endogenous, mouse) (from UniProt Q9EPK5 1-395) | binds |
| CtBP2 (from UniProt P56546 1-445) | binds |
| CtBP1 (from UniProt O88712 1-441) | binds |
| YAP (endogenous, mouse) (from UniProt P46938 1-488) | binds |
| B1 | binds |
